Source: patent US20220387602A1, “BIFUNCTIONAL DEGRADERS AND THEIR METHODS OF USE” (NOVARTIS AG, priority 2019, published 2022)
The structures given here were assigned with low confidence; some may be wrong.

Amino acid sequences for entries named in this document (tags omitted).
UniProt Q06187, whole entry: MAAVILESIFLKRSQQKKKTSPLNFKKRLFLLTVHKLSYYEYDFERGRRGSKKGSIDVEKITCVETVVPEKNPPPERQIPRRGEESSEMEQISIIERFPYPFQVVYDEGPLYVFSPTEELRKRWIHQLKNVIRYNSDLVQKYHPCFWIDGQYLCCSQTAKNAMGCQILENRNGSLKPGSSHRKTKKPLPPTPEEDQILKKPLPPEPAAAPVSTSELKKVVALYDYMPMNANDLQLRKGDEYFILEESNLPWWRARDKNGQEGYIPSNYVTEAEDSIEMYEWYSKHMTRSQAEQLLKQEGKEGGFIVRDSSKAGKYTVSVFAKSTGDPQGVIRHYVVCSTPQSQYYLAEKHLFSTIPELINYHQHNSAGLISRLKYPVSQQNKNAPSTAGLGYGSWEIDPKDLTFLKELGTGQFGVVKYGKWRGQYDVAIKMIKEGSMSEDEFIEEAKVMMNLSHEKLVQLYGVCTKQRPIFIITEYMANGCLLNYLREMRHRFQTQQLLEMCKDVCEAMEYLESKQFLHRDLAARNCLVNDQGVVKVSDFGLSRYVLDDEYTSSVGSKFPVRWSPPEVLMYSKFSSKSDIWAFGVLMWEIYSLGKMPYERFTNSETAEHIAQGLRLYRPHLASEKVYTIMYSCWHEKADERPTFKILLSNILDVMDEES
UniProt Q96SW2, whole entry: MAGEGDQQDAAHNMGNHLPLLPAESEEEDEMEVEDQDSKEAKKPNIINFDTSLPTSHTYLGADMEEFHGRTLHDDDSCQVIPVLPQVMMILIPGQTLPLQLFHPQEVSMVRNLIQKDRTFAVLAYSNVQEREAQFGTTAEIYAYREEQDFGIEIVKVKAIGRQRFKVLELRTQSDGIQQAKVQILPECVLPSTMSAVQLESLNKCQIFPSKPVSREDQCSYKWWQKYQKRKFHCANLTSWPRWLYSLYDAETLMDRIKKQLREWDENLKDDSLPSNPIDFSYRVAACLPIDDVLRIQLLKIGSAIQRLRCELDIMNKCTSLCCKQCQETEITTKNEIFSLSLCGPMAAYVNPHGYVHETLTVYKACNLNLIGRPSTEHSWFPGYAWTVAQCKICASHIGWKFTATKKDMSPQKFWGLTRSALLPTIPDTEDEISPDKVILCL

Legend:
BTK = BTK (Homo sapiens, UniProt Q06187); test: BTK-GFP protein abundance flow cytometry assay in HEK293A; type: cell-based; details: % protein remaining at the concentration at which maximum degradation is seen, 24 h
CRBN = CRBN (Homo sapiens, UniProt Q96SW2); test: CRBN displacement assay Format 1 (fluorescence polarization, BodipyFL-lenalidomide probe Compound HH); details: read-out: CRBN AC50 [μM] Format1; bifunctional degraders, Table 5

In the case of `COc1ccc(C(=O)N2CCC3(CCN(Cc4ccc(-c5cc6c(-c7cc(F)cc(NC(=O)c8ccc(C(C)(C)O)cc8F)c7C)ncnc6[nH]5)cc4)CC3)CC2)cc1N1CCC(=O)NC1=O`, the “BTK degradation Amax” value (BTK) is reported as 4.5% and the AC50 (CRBN) is reported as 0.587 µM.
